# Experimental data from paper PMC5996148.
# Values joined by “and” are separate entries in the source; they are usually repeats but may differ in a detail not shown here. Equal values may be shown once. This is one part of the list.
# Columns and labels:
# Assay in all cases: protein microarray (ProtoArray v5.0), streptavidin-Alexa Fluor 647
# Conditions in all cases: 3'-biotin; 20 mM Tris (pH 7.5), 5 mM MgCl2, 100 mM KCl, 0.1% Tween-20, A/T-rich and random oligonucleotide blockers; temperature not stated; high values mean tight binding
# PSME1 (human) = test system: PSME1 (human)
# PTCHD1 (human) = test system: PTCHD1 (human)
# PTGES2 (human) = test system: PTGES2 (human)
# PTK2B (human) = test system: PTK2B (human)
# PTMS (human) = test system: PTMS (human)
# PTPN1 (human) = test system: PTPN1 (human)
# PTPN2 (human) = test system: PTPN2 (human)
# PVALB (human) = test system: PVALB (human)
# PVRL3 (human) = test system: PVRL3 (human)
# PXN (human) = test system: PXN (human)
# PYCR1 (human) = test system: PYCR1 (human)
# Paladin (human) = test system: Paladin (human)
# [1] = test system: Pantothenate kinase 1 (human)
# [2] = test system: Peptidyl-prolyl cis-trans isomerase-like 3 (human)
# [3] = test system: Peptidyl-tRNA hydrolase 2, mitochondrial (human)
# [4] = test system: Phosphatase and actin regulator 4 (human)
# [5] = test system: Phosphatidylinositol-3,4,5-trisphosphate 3-phosphatase and dual-specificity protein phosphatase PTEN (human)
# [6] = test system: Phosphoacetylglucosamine mutase (human)
# [7] = test system: Phosphoglucomutase-2 (human)
# [8] = test system: Phospholipase DDHD2 (human)
sequence,measurement,setting,value
GGGGACAGGGGTATGGGGAGGGG [G4-3 biotinylated (CtG)],binding signal,PSME1 (human),-0.339 z-score
same,binding signal,PTCHD1 (human),-0.312 z-score
same,binding signal,PTGES2 (human),-0.345 z-score
same,binding signal,PTK2B (human),-0.331 z-score
same,binding signal,PTMS (human),-0.315 z-score
same,binding signal,PTPN1 (human),-0.328 z-score
same,binding signal,PTPN2 (human),-0.318 z-score
same,binding signal,PVALB (human),-0.326 z-score
same,binding signal,PVRL3 (human),-0.307 z-score
same,binding signal,PXN (human),-0.33 z-score
same,binding signal,PYCR1 (human),-0.339 z-score
same,binding signal,Paladin (human),-0.317 z-score
same,binding signal,[1],-0.322 z-score and -0.334 z-score
same,binding signal,[2],-0.329 z-score
same,binding signal,[3],3.95 z-score
same,binding signal,[4],-0.325 z-score
same,binding signal,[5],-0.336 z-score
same,binding signal,[6],-0.334 z-score
same,binding signal,[7],-0.335 z-score
same,binding signal,[8],-0.327 z-score

# Part of the list above, reformatted:
sequence | measurement | setting | value
GGGGACAGGGGTATGGGGAGGGG [G4-3 biotinylated (CtG)] | binding signal | [2] | -0.329 z-score
same | binding signal | [3] | 3.95 z-score
